We go through four molecules from PMC11239919.

Amino acid sequences for entries named in this document (tags omitted). A change or cut given only in a name is not applied to a line headed by its entry. Chains listed by the source or under a name are the forms on record and can include a tag or linker. Residues count along the entry.
UniProt P08195, residues 102-630: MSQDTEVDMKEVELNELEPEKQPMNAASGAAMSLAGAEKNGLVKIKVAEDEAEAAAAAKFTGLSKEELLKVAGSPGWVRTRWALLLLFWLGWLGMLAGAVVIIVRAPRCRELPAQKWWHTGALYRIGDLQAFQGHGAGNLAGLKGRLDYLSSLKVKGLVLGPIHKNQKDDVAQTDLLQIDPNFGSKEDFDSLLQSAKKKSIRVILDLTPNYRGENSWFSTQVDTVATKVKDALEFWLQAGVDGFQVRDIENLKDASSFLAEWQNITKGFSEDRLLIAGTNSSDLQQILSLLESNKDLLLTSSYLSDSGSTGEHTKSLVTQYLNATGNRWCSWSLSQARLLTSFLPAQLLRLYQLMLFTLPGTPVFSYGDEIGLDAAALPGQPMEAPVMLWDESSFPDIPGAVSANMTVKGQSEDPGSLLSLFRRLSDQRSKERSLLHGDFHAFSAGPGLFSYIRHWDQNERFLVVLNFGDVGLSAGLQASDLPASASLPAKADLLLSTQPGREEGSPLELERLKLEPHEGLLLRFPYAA
Anaplastic Lymphoma Kinase (ALK) receptor tyrosine kinase, wild type, endogenous in NB1 cells (Q9UM73, residues 19-1620): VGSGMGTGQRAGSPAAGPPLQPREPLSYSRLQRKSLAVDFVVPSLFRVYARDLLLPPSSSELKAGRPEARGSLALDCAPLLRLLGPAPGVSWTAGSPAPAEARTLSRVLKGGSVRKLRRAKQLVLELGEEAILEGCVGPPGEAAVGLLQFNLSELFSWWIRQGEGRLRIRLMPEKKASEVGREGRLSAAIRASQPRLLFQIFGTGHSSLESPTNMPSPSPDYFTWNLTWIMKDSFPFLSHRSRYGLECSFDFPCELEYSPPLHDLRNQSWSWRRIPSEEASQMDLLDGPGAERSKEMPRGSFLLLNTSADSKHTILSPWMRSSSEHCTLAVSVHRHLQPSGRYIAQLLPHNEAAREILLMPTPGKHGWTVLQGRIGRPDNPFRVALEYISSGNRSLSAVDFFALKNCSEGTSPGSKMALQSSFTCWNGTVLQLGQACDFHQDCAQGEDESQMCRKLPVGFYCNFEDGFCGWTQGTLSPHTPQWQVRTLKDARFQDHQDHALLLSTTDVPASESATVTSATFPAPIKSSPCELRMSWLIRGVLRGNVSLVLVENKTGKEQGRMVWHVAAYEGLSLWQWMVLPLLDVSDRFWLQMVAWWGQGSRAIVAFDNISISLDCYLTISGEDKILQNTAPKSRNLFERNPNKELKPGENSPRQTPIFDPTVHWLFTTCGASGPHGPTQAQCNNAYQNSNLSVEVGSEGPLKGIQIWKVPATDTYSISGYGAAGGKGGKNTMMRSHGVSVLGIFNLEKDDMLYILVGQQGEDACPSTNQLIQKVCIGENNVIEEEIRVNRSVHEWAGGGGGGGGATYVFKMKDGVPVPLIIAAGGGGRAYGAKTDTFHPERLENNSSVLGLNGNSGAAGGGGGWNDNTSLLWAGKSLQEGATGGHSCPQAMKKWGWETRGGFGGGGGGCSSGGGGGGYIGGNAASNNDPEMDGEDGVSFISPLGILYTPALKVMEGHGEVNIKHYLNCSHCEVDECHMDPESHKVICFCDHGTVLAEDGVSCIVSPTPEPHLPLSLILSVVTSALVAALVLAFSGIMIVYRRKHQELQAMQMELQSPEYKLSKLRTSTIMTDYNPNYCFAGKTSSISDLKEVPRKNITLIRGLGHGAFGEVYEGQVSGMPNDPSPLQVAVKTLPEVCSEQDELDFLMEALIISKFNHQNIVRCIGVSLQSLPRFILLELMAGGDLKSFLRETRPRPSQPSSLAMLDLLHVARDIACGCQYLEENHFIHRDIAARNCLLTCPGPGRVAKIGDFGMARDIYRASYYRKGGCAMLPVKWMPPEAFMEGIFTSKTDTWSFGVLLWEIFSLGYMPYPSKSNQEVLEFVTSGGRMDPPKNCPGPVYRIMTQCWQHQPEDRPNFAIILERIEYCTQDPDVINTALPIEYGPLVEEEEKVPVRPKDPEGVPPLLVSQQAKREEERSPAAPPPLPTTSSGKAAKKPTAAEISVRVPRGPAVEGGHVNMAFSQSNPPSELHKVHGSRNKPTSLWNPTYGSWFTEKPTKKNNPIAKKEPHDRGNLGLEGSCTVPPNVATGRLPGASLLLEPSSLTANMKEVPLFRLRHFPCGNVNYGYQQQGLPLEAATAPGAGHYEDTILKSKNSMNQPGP
Anaplastic Lymphoma Kinase (ALK) F1174V, endogenous in CLB-GE cells (Q9UM73, form named): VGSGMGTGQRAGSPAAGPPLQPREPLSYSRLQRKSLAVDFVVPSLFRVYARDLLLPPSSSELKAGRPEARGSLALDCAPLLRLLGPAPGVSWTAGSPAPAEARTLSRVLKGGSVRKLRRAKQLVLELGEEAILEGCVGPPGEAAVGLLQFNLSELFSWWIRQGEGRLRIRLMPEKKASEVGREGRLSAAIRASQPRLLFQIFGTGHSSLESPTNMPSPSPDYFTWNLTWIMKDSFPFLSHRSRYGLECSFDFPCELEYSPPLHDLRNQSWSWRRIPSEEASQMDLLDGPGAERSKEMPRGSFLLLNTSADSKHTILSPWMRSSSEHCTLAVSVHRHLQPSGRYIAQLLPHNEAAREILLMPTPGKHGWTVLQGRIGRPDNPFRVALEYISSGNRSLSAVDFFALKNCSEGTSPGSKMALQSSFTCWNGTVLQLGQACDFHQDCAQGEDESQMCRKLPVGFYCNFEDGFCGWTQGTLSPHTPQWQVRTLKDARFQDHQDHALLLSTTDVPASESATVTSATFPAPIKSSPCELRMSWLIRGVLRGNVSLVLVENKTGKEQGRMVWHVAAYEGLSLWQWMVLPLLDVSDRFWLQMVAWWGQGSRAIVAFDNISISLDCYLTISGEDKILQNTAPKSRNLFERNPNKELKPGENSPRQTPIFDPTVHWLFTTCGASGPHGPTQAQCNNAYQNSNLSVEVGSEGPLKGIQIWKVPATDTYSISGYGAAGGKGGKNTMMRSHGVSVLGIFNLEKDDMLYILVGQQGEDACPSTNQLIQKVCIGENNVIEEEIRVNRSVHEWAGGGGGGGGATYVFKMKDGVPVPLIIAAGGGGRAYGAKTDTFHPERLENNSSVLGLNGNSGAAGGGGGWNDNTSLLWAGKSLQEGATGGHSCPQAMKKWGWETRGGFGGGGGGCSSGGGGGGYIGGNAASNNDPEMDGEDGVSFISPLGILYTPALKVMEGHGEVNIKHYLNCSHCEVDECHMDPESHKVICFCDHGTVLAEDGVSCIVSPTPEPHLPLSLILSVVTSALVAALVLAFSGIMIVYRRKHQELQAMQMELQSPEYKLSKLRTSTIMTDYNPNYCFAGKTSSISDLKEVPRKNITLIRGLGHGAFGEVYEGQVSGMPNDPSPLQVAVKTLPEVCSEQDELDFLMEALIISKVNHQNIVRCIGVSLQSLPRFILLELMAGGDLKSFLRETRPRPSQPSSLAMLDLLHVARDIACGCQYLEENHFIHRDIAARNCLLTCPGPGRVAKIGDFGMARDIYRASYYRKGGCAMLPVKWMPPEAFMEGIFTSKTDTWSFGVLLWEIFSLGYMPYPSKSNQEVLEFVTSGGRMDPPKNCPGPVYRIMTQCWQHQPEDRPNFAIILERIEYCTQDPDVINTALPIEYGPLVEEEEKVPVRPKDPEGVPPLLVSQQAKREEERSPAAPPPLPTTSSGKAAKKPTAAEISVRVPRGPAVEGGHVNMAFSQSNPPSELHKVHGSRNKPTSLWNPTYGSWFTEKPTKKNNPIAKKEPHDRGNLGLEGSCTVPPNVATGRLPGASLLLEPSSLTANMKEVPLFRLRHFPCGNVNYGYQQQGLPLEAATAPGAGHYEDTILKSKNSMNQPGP
UniProt Q01650: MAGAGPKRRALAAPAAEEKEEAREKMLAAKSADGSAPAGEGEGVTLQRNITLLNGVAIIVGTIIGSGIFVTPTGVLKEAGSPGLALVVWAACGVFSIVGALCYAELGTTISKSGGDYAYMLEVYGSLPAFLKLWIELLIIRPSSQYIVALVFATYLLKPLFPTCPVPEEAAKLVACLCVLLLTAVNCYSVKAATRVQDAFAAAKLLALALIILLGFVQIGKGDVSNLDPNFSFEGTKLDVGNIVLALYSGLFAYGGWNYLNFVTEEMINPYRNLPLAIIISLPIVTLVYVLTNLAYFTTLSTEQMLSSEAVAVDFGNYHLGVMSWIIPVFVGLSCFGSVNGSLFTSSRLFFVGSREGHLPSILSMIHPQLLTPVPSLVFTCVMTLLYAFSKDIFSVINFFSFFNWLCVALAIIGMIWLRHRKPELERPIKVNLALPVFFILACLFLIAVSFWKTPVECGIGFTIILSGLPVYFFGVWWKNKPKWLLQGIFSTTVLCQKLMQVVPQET

No constants are given. Whether binding was seen depends on the method and setting. Binding seen in cells or lysates may run through a third protein. Some results given as binding are weak or reduced against the parent protein; the word gives no strength.

For test [1], the target named is Solute Carrier Family 3 (activators of dibasic and neutral amino acid transport), Member 2 (human (endogenous in NB1, CLB-GE, CLB-BAR)) (UniProt P08195). The test can be described thus: co-IP; endogenous proteins; 300 µg lysate (IP buffer: 150 mM NaCl, 50 mM Tris-HCl, 1% Triton X-100, 1% glycerol) with 3 µg anti-ALK or anti-SLC3A2 overnight at 4 °C, Protein G Sepharose, washes with 500 mM NaCl buffer; immunoblot; NB1 cells treated with ALKAL2 (1 µg/ml); no lorlatinib. On the technique in general: A western blot detects proteins with antibodies after separation by electrophoresis.

Test [2] has the same target. The test can be described thus: co-IP; Sup. Fig. 1C; cell line and precipitating antibody not told in the text shown.
The target is the same in test [3]. The test can be described thus: co-IP; endogenous proteins; 300 µg lysate (IP buffer: 150 mM NaCl, 50 mM Tris-HCl, 1% Triton X-100, 1% glycerol) with 3 µg anti-ALK or anti-SLC3A2 overnight at 4 °C, Protein G Sepharose, washes with 500 mM NaCl buffer; immunoblot; NB1 cells treated with ALKAL2 (1 µg/ml); no lorlatinib. The source holds these as a separate data set.

In the case of “Anaplastic Lymphoma Kinase (ALK) F1174V, endogenous in CLB-GE cells (from UniProt Q9UM73 19-1620) (receptor)”, the binding result in test [1] is “binds”.
Turning to “Anaplastic Lymphoma Kinase (ALK) receptor tyrosine kinase, wild type, endogenous in NB1 cells (from UniProt Q9UM73 19-1620)”, the binding result in test [1] is “binds”.
Turning to SLC7A5 (from UniProt Q01650 1-507), the binding result in test [2] is reported as “binds”.

B1: MARCH11 E3 ligase, endogenous in CLB-BAR cells (enzyme, UniProt A6NNE9 1-402)
chain: MSFEGGHGGSRCRGAESGDAEPPPQPPPPPPPTPPPGEPAPVPAAPRYLPPLPASPETPERAAGPSEPLGEVAPRCRGADELPPPPLPLQPAGQEVAAAGDSGEGPRRLPEAAAAKGGPGESEAGAGGERERRGAGDQPETRSVCSSRSSSSGGGDQRAGHQHQHHQPICKICFQGAEQGELLNPCRCDGSVRYTHQLCLLKWISERGSWTCELCCYRYHVIAIKMKQPCQWQSISITLVEKVQMIAVILGSLFLIASVTWLLWSAFSPYAVWQRKDILFQICYGMYGFMDLVCIGLIVHEGAAVYRVFKRWRAVNLHWDVLNYDKATDIEESSRGESSTSRTLWLPLTALRNRNLVHPTQLTSPRFQCGYVLLHLFNRMRPHEDLSEDNSSGEVVMRVTSV
B1: the binding entry in test [3] is reported as “binds”.
